Data published in patent US20220112291A1.
Residue numbers refer to the chain shown, from its start. Results are given in words; binding and its absence hold for the method and conditions named. Some binding calls cover weakened binding; strength is not graded here.

B1: Ab673 (antibody, human IgG1, kappa, V domains shown)
VH: EVQLVESGGGLVQPGGSLRLSCAASGFTFTDHYMHWVRQAPGKGLEWVAHTRDKAGGYTTESNPAVKGRFTISRDNAKNSLYLQMNSLRAEDTAVYYCARETTRIPTGWFAYWGQGTLVTVSS
VL: DIQMTQSPSSLSASVGDRVTITCLASEDIYFDLAWYQQKPGKAPKLLIYGGDRLKEGVPSRFSGSGSGTDYTLTISSLQPEDFATYYCQQSYSYPYTFGQGTKLEIKR
B2: Ab138 (antibody, human IgG1, kappa, V domains shown)
VH: B1 VH with H32F, H35N, H50F, T51I, D53N, G56N, A65S, R104G
VL: B1 VL with Y30S, F31N, G51A, D52N, E56D, S93K

Key:
[1] = molecular target: human single-chain CD1a-β2M recombinant protein (Human B2M-CD1a ECD-Avi-His6) (human); experiment: Octet (BLI), 2nd antibody at 100 nM on CD1a captured by OKT6
[2] = molecular target: human single-chain CD1a-β2M recombinant protein (Human B2M-CD1a ECD-Avi-His6) (human); experiment: Octet BLI sandwich: OKT6 coupled to the tip, human CD1a (200 nM) held by it, then Ab673 as second antibody at 100 nM
[3] = molecular target: human single-chain CD1a-β2M recombinant protein (Human B2M-CD1a ECD-Avi-His6) (human); experiment: competition ELISA on coated CD1a against biotinylated Ab40

Row | Binder | binding [1] | binding [2] | binding [3]
1 | B1 | binds | binds | 
2 | B2 |  |  | binds
